Residue numbers refer to the chain shown, from its start. For at least one entry, the source does not settle the construct or the ends of the probe. At least one result comes from cells or an extract, where the contact may be indirect. For part of these data: A negative result means that nothing was seen under these conditions. Protein sequences can lack the tags named with them.
Columns and labels:
TTP mouse (Mus musculus) = molecular target: T1, TTP mouse (Mus musculus) (UniProt P22893); assay: binding assay; details: UV cross-linking; protein in a lysate after overexpression; protein details: C-terminal HA (CMV.mTTP.tag); label: 32P-UTP
T1 sequence (looked up, limits assumed): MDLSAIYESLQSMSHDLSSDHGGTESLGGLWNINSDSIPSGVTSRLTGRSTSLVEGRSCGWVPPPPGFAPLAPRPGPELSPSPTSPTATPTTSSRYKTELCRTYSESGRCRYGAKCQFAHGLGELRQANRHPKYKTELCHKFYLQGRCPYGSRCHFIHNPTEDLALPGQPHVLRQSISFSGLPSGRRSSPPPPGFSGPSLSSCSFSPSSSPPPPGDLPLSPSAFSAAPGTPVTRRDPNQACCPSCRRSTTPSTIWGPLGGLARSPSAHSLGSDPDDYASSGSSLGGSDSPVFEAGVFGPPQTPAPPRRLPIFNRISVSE

[1] = molecular target: T2, TTP(97-173) (Homo sapiens) (UniProt P26651); assay: binding assay; details: UV cross-linking; protein in a lysate after overexpression; protein details: C-terminal HA; label: 32P-UTP
T2 sequence: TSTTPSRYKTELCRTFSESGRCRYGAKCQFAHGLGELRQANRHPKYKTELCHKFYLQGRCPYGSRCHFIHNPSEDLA

[2] = molecular target: T3, XC3H-1 (Xenopus TTP) (Xenopus laevis) (UniProt Q9W671); assay: binding assay; details: UV cross-linking; protein in a lysate after overexpression; protein details: C-terminal HA; label: 32P-UTP
T3 sequence (looked up, limits assumed): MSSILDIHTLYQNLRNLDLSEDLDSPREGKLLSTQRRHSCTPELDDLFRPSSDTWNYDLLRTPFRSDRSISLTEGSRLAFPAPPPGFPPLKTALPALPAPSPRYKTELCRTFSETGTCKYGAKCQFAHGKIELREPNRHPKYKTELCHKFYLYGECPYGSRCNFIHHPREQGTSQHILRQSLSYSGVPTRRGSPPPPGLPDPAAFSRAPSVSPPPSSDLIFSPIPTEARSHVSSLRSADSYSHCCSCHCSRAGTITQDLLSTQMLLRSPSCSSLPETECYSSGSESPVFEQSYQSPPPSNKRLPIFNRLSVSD

[3] = test system: T4, XC3H-4(1-120) (Xenopus laevis); assay: binding assay; details: UV cross-linking, complex of about Mr 15,000; protein in a lysate after overexpression; protein details: C-terminal HA (oocyte extract); label: 32P-UTP
T4 sequence: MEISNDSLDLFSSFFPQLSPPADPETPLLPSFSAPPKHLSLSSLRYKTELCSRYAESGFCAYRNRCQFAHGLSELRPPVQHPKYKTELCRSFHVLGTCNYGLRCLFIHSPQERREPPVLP

[4] = molecular target: T5, TTP (tristetraprolin) wild type (Homo sapiens) (UniProt P26651); assay: binding assay; details: UV cross-linking, room temperature, heparin and tRNA competitor; EMSA also positive (p199); protein in a lysate after overexpression; label: 32P-UTP
T5 sequence: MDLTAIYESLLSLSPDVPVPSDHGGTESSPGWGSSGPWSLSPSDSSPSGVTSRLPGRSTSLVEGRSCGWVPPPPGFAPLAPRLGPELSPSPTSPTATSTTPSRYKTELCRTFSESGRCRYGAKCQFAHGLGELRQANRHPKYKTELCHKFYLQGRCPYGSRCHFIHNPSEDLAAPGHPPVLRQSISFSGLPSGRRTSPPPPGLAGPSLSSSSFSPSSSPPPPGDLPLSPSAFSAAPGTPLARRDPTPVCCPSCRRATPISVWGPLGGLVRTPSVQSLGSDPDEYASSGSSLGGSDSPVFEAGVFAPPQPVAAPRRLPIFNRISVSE

[5] = molecular target: T6, TTP(1-173) (Homo sapiens) (UniProt P26651); assay: binding assay; details: UV cross-linking; protein in a lysate after overexpression; protein details: C-terminal HA; label: 32P-UTP
T6 sequence: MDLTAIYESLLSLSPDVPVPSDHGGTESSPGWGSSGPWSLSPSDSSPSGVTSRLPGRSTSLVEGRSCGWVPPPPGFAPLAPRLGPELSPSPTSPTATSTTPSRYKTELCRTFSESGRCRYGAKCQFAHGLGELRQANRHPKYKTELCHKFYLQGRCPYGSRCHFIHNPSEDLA

[6] = molecular target: T7, XC3H-3 (TIS11d/ERF2 homologue) (Xenopus laevis) (UniProt Q7ZXW9); assay: binding assay; details: UV cross-linking; EMSA also positive (p256); protein in a lysate after overexpression; protein details: C-terminal HA; label: 32P-UTP
T7 sequence (looked up, limits assumed): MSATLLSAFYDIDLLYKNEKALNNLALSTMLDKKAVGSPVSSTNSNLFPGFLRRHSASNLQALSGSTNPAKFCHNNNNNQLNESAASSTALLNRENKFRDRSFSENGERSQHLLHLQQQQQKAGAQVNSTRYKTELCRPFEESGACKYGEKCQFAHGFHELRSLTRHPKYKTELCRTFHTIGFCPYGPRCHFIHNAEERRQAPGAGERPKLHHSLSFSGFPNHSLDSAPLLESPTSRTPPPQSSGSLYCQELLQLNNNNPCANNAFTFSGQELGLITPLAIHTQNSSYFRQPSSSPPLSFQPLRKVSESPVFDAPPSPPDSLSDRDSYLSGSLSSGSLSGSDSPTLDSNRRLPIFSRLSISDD

TTP C147R (Homo sapiens) = molecular target: T8, TTP C147R (Homo sapiens) (UniProt P26651); assay: EMSA; details: protein in a lysate after overexpression; protein details: C-terminal HA; label: 32P-UTP
T8 sequence: T5 sequence with C147R

TTP C124R (Homo sapiens) = molecular target: T9, TTP C124R (Homo sapiens) (UniProt P26651); assay: EMSA; details: protein in a lysate after overexpression; protein details: C-terminal HA; label: 32P-UTP
T9 sequence: T5 sequence with C124R

“CUCUAUUUAUAUUUGCACUUAUUAUUUAUUAUUUAUUUAUUAUUUAUUUAUUUGCUUAUGAAUGUAUUUA [TNFa ARE probe 1281-1350]”: binds (TTP mouse (Mus musculus)); binds [1]; binds [2]. “CUCUAUUUAUAUUUGCACUUAUUAUUUAUUAUUUAUUUAUUAUUUAUUUAUUUGCUUAUGAAUGUAUUUA [TNFa ARE probe 1281-1350]”: binds [3]; binds [4]; binds [5]. “CUCUAUUUAUAUUUGCACUUAUUAUUUAUUAUUUAUUUAUUAUUUAUUUAUUUGCUUAUGAAUGUAUUUA [TNFa ARE probe 1281-1350]”: binds [6]; no binding (TTP C147R (Homo sapiens)); no binding (TTP C124R (Homo sapiens)).

Source: patent US7238473
